Laboratory results: article PMC10057332 (International Journal of Molecular Sciences, 2023)
HELM strings list residues between dots; [ac] is acetyl, [am] amide, other brackets name non-standard units.

What was measured:
[1] = general procedure: peptide synthesis; Rink Amide; Oxyma pure / DIC; conditions: whole synthesis
[2] = general procedure: peptide synthesis; Rink Amide resin (Novabiochem); 2-chlorotrityl resin preloaded with ethylendiamine linker; Oxyma pure / DIC

Row | Substance | isolated yield [1] [%] | final HPLC purity ([2]; whole synthesis, 216nm) [%] | final HPLC purity ([2]; conjugation step, 216 nm) [%] | other results
1 | Oct-Aib^1-Gly-Leu-Aib^4-Gly-Gly-Leu-Api^8-Gly-Ile-Leu^11-NH2 | 60.28 | 95 | – | –
2 | Oct-Aib^1-Gly-Leu-Aib^4-Gly-Gly-Leu-Api^8-Gly-Ile-Leu^11-NH-(CH2)2-NH-FITC | – | – | – | final purity (method not given) ([2]; conjugation step, analytical RP-HPLC, 216 nm): 95%
3 | Oct-Aib^1-Gly-Leu-Aib^4-Gly-Gly-Leu-Api^8-Gly-Ile-Leu^11-NH-(CH2)2-NH-Lipoyl | – | – | 96 | –
4 | Oct-Aib^1-Gly-Leu-Leu^4-Gly-Gly-Leu-Aib^8-Gly-Ile-Leu^11-NH-(CH2)2-NH-FITC | – | – | 98 | –
5 | Oct-Aib^1-Gly-Leu-Leu^4-Gly-Gly-Leu-Aib^8-Gly-Ile-Leu^11-NH-(CH2)2-NH-Lipoyl | – | – | 96 | –
6 | PEPTIDE1{[Oct].[Aib].G.L.L.G.G.L.[Aib].G.I.L.[am]}$$$$V2.0 | 72.5 | 98 | – | –
